# Reference: PubChem BioAssay AID1439 (NMMLSC, 2008)
# By UniProt entry, the sequences of proteins in these tests, tags left out.
# UniProt P09471, whole entry, looked up: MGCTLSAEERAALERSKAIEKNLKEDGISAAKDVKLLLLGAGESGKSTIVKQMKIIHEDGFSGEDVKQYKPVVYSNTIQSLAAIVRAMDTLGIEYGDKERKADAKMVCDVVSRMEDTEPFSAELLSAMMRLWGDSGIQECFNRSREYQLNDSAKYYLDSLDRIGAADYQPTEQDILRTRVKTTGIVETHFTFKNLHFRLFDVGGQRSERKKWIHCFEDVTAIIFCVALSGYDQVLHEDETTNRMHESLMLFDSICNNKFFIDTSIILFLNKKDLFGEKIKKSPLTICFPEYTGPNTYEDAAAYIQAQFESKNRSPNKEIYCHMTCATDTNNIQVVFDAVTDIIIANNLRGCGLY
# Screen size: about 220,000 compounds; about 770 (0.35%) were called active. The shares of active, inactive and inconclusive entries below differ from those in the screen. Rule as the data show it: active = binding response below about 49% or above about 150%; inconclusive = no clear call, values can overlap the other calls; inactive = in between.
# Biological target: Guanine nucleotide-binding protein G(o) subunit alpha (Homo sapiens) (UniProt P09471)
# Test: RGS7-Galphao binding modulators, primary screen, biochemical, multiplexed bead flow cytometry (AID 1439);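 also: fluorescent Galphao held in activated GDP-AlF4 state binding bead-coupled RGS7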
# Conditions: at 10 µM, actives lie on both sides
row,SMILES,binding response (% of control)
1,COC(=O)c1ccccc1OCCOCCOc1cccc2ccc(C)nc12,inconclusive: 78.8%
2,COC(=O)c1c(NC(=S)Nc2ccc(C(=O)N3CCOCC3)cc2)sc2c1CCC2,inactive: 96.1%
3,C/C=C/C=C/C(=O)N1CC2(CC(c3cccc(NC(=O)CCCCC)c3)=NO2)C[C@H]1C(N)=O (some centres not stated),inconclusive: 80.4%
4,COc1cccc(CN2CCN(C(=S)NCc3ccc(Cl)cc3)CC2)c1,inactive: 96.4%
5,COCCCNS(=O)(=O)c1ccc2[nH]c(=O)[nH]c2c1,inconclusive: 101%
6,Cc1ccc(C(=O)COc2cc(C)nc3nncn23)cc1,inconclusive: 121%
7,CCCC(N)CCCCCC(=O)O (configuration not stated),inactive: 120%
8,CCCCC1=CC2=C(c3ccco3)C(=O)C(C)(OC(=O)c3ccc(OC)cc3)C(=O)C2=CN1c1ccc(OC)cc1 (configuration not stated),inconclusive: 76.3%
9,FC(F)(F)c1ccc(CN2C[C@@H]3C(c4ccc(C(F)(F)F)cc4)C4(c5cccnc5)CC3(C4)[C@H]2c2ccccc2)cc1 (some centres not stated),inconclusive: 85.9%
10,Cc1nn(C2CCS(=O)(=O)C2)c(Cl)c1/C=C/C(=O)OCC(N)=O (configuration not stated),inconclusive: 100%
11,CCc1ccnc(NC(=O)NS(=O)(=O)c2ccc(C)cc2)c1,inconclusive: 88%
12,COc1ccccc1N(Cc1cc(=O)[nH]c2ccccc12)C(=O)c1ccccc1,inconclusive: 69.7%
13,COCCn1c(N)c(N(Cc2ccccc2)C(=O)c2oc3ccccc3c2C)c(=O)[nH]c1=O,inactive: 102%
14,CC(=O)N1CCc2cc(Br)cc(S(=O)(=O)CCC(=O)Nc3c(C)n(C)n(-c4ccccc4)c3=O)c21,inactive: 98.9%
15,CC1CC(=O)Nc2ccccc2N1C(=O)Nc1ccccc1 (configuration not stated),inconclusive: 68.3%
16,CCOC(=O)c1[nH]c(C)c(C(=O)NCc2ccco2)c1C,inconclusive: 98%
17,CC(=O)N1CCc2cc(S(=O)(=O)NC(Cc3ccccc3)C(=O)Nc3cc(C)ccn3)ccc21 (configuration not stated),inactive: 118%
18,Cc1ccnc(NS(=O)(=O)c2cc(C(F)(F)F)ccc2Cl)c1,inconclusive: 106%
19,COC(=O)C1CCN(C(=O)CSc2nc3ccc(OC)cc3[nH]2)CC1,inconclusive: 86.3%
20,Cn1nc(-c2ccc(Cl)cc2)cc1NC(=O)CSCC(=O)O,inconclusive: 109%
21,CCOC(=O)c1c(SC)[nH]c2c(Cl)cccc2c1=O,inconclusive: 86.8%
22,CCN(CC(=O)Nc1ccc(N2CCOCC2)cc1)C(=O)c1ccc(C(F)(F)F)cc1,inactive: 108%

row,SMILES,binding response (% of control)
1,N#Cc1ccc(C23CC4(C2)[C@H](CN(P(=O)(c2ccccc2)c2ccccc2)[C@@H]4c2ccccc2)C3c2ccc(Cl)nc2)cc1 (some centres not stated),inconclusive: 126%
2,O=C(OCc1cc2ccccc2[nH]c1=O)c1cccc([N+](=O)[O-])c1,inconclusive: 97.6%
3,COC(=O)Nc1ccc(S(=O)(=O)N2CCCC(C(=O)N3CCN(C)CC3)C2)cc1 (configuration not stated),inconclusive: 99.9%
4,NC(=S)NNc1c(F)c(F)c(F)c(F)c1F,inconclusive: 98.5%
5,CCOC(=O)C1(Cc2ccccc2)CCN(Cc2cn[nH]c2-c2ccccc2)CC1,inactive: 104%
6,COc1ccc(-c2nnn(CCc3nn[nH]n3)n2)cc1OC,inactive: 95.3%
7,CN(C)CCCNc1ccc(-c2cc(Nc3cccc(Cl)c3)ncn2)cn1,inconclusive: 96.3%
8,Cc1ccccc1NC(=S)NCc1cccn1C,inactive: 99.8%
9,Nc1ncnc2c1ncn2C1OC(CO)C(O)C1N (configuration not stated),inconclusive: 118%
10,CCCCc1c(C)nc2ccc(C(=O)OCC)cc2c1Cl,inactive: 97.5%
11,COc1ccc(NC(=O)c2coc3ccccc23)cc1OC,inactive: 98.3%
12,CN(C)C(CNC(=S)Nc1cccc(Cl)c1)c1ccccc1 (configuration not stated),inactive: 98.6%
13,O=C(NCCCN1CCOCC1)c1ccc2c(c1)N(Cc1ccccc1)CCS2,inconclusive: 99.5%
14,OC[C@@H](O)[C@@H](O[C@H]1O[C@H](CO)[C@@H](O)[C@H](O)[C@H]1O)[C@H](O)[C@@H](O)CO,inactive: 98.2%
15,O=C(Nc1ccccc1NS(=O)(=O)c1ccc(F)cc1)C1CCC1,inconclusive: 110%
16,COc1ccc(C(=O)NCc2ccc3c(c2)cc(C)n3C)cc1OC,inactive: 103%
17,Cc1cc(/C=N/N2CCN(C)CC2)c(C)n1-c1ccccc1F,inconclusive: 99.9%
18,COc1ccc(-c2csc(-c3cccs3)n2)c(OC)c1,inconclusive: 108%
19,COc1cccc(NC(=O)C(=O)NCCc2ccc(F)cc2)c1,inconclusive: 51.7%
20,COCCCNc1nc2nonc2nc1N1CCC(C(C)N2CCOCC2)CC1 (configuration not stated),inactive: 97.2%
21,CC(=O)NNC(=O)CN1C(=O)/C(=C/c2ccccc2)SC1=S,inconclusive: 123%
22,Cc1ccc(-c2csc(NC(=O)C[n+]3cc(-c4ccccc4)n4c3CCC4)n2)cc1,inconclusive: 121%

# In a second layout: results already given
row | SMILES | binding response (% of control)
14 | OC[C@@H](O)[C@@H](O[C@H]1O[C@H](CO)[C@@H](O)[C@H](O)[C@H]1O)[C@H](O)[C@@H](O)CO | inactive: 98.2%
19 | COc1cccc(NC(=O)C(=O)NCCc2ccc(F)cc2)c1 | inconclusive: 51.7%
22 | Cc1ccc(-c2csc(NC(=O)C[n+]3cc(-c4ccccc4)n4c3CCC4)n2)cc1 | inconclusive: 121%

# (listing goes on)

row,SMILES,binding response (% of control)
1,Cc1ccc(CNC(=O)CSc2nc3ccsc3c(=O)n2NC(=O)c2ccccc2)cc1,inactive: 95.8%
2,NS(=O)(=O)c1cc(C(=O)OCC(=O)Nc2ccc(N3CCCCC3)cc2)ccc1Cl,inconclusive: 58.8%
3,CCC12CC3CC(C1)CC(C(=O)NNC(N)=O)(C3)C2,inconclusive: 104%
4,Cn1nc(-c2ccc(Cl)cc2)cc1NC(=O)Nc1ccccc1,inconclusive: -45.9%
5,CCc1ccc(NS(=O)(=O)c2cccc3nonc23)cc1,inactive: 101%
6,CCC1=C(OC(=O)N(CC)CC)N2C(=O)OC(=NCCc3c[nH]c4ccccc34)[C@]2(Cc2ccccc2)[C@H]2C1=CC[C@H]1C(=O)N(CC(=O)OC)C(=O)[C@H]12,inconclusive: 107%
7,CCOc1ccc(C(=O)Nc2cccc3ncccc23)cc1Br,inconclusive: 94.7%
8,N#Cc1ccc(OCC(=O)NN2Cc3ccccc3C2=N)cc1,inconclusive: 104%
9,NC(=O)NC(c1ccc(Cl)cc1)c1ccccc1Cl (configuration not stated),inconclusive: 114%
10,CCO/N=C/c1ccc(OC)c(Oc2nc(OC)cc(OC)n2)c1,inconclusive: 82.4%
11,COc1ccc(/C=C2\CCCc3c2nc2ccccc2c3C(=O)O)cc1OC,inconclusive: 72.9%
12,COc1ccc(OCc2nnc(SCC(=O)N(C)Cc3ccccc3)n2N)cc1,inconclusive: 107%
13,c1ccc(Cc2noc(CN3CCN(C4CCc5ccccc5C4)CC3)n2)cc1 (configuration not stated),inconclusive: 106%
14,Cc1occc1-c1nnc(SCC(=O)N2CC(=O)Nc3ccccc32)n1CC(C)C,inactive: 112%
15,COc1ccc(-c2nn(-c3ccccc3)cc2/C=C\C(=O)N2CCOCC2)cc1[N+](=O)[O-],inconclusive: 84.8%
16,COc1ccc(NC(=O)CSc2nc(-c3ccc(C)cc3)cc(C(F)(F)F)c2C#N)cc1,inactive: 98.8%
17,Cc1nnsc1C(=O)N1CCN(c2cc(C(F)(F)F)ccn2)CC1,inconclusive: 114%
18,CCOc1ccc(NC(=O)CC)cc1,inconclusive: 111%
19,Cc1ccc(NC(=O)C2CC(Cl)=CCC2C(=O)O)c([N+](=O)[O-])c1 (configuration not stated),inactive: 92.9%
20,Cc1ccc(SCc2cn3cc(Cl)ccc3n2)cc1,inconclusive: 138%
21,COc1cccc(C(=O)NC(=S)Nc2ccc(Cl)cc2C(=O)O)c1,inconclusive: 62.2%
22,CCN(CC)S(=O)(=O)c1ccc(/C=C/C(=O)O)cc1,inconclusive: 88%

row,SMILES,binding response (% of control)
1,O=S(=O)(Cc1ccc(Cl)cc1)NCc1cccnc1,inconclusive: 100%
2,CNC(=S)N1CCC(NC(=O)c2ccco2)CC1,inconclusive: 95.3%
3,Cc1cc(C)n(-c2nc(NCCCN(C)C)c3c4c(sc3n2)CCCC4)n1,inconclusive: 120%
4,N#CC1=C2N=C(N)c3ccccc3N2C2=C(C(=O)CCC2)C1c1ccc(F)cc1 (configuration not stated),inconclusive: 93%
5,Cc1ccccc1C(=O)N1CCN(C(c2ccccc2)c2ccccc2)CC1,inconclusive: 92%
6,Oc1c(Cl)cc(Cl)cc1C1Nc2ccccc2-n2cccc21 (configuration not stated),inconclusive: 83.9%
7,COc1ccc(-n2c(=S)[nH]c3sc4c(c3c2=O)CCN(C)C4)cc1,inconclusive: 97.5%
8,CCC(C)(C)c1ccc(Oc2cccc(C(=O)O)c2)cc1,inconclusive: 118%
9,COc1ccc(C2c3ccc(O)cc3Oc3ncn(CC(C)C)c(=N)c32)cc1 (configuration not stated),inconclusive: 129%
10,CC(C)[C@H](NC(=O)CCCn1nnc2ccccc2c1=O)C(=O)O,inconclusive: 185%
11,O=[N+]([O-])c1cccc(/C=N/Nc2nc(NCc3ccccc3)nc(N3CCOCC3)n2)c1O,inactive: 98.1%
12,CCCCNC(=O)COC(=O)CCC(=O)c1ccc(F)cc1,inactive: 103%
13,C=CCNC(=S)N1CCc2[nH]c3ccccc3c2C1,inconclusive: 112%
14,CCCc1nn2c(N)c(/C=C3\C=Nc4ccccc43)c(=O)nc2s1,inconclusive: 136%
15,CCCCOc1ccc(C(O)C(CN2CCOCC2)c2ccccc2)cc1 (configuration not stated),inconclusive: 83.8%
16,Cc1ccc(C(=O)NCCc2cccs2)cc1,inconclusive: 146%
17,CC(=O)c1ccccc1N(C(=O)c1ccco1)C(C(=O)NC1CCCC1)c1ccc(N2CCOCC2)cc1 (configuration not stated),inactive: 94.7%
18,CCCc1nc(SCC(=O)N2CCC(C)CC2)c2c(=O)n(C)c(=O)n(C)c2n1,inconclusive: 104%
19,CC(=O)NC1CCN(CC(=O)Nc2cccc([N+](=O)[O-])c2)CC1,inconclusive: 112%
20,O=C(NC1CCCC1)c1ccc(Cn2c(=O)[nH]c3ccsc3c2=O)cc1,inconclusive: 96.8%
21,CC12CN(C(=O)c3ccc([N+](=O)[O-])cc3)CC(C)(CN(C(=O)c3ccc([N+](=O)[O-])cc3)C1)C2=O,inconclusive: 98.9%
